PubChem BioAssay AID493246 – Drosophila RNAi Screening Center, 2011
Aim: 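Identify essential fly genes by loss of cell viability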 (primary screen). System: Drosophila Kc and S2R+ cells. Reagents: long dsRNA against Drosophila genes. Detection: 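Cell number per well after knock-down, printed as raw plate values; calls were based on per-plate z-scores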. Reading the numbers: Kc cell number and S2R+ cell number: higher = more cells remaining. Rule for the call: 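Active when the per-plate z-score of cell number is 3 or more in the direction of fewer cells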.
In all, the deposit lists about 21,000 reagents; this is an unselected part of those that have a named target and a result. Over the whole deposit, 429 (2%) are marked active. 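Values are raw and not normalised between plates; calls rest on per-plate z-scores that were not deposited.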 Not given: the amount of reagent, the time to read-out.

no.	target	DRSC id	Kc cell number, rep 1	Kc cell number, rep 2	S2R+ cell number, rep 1	S2R+ cell number, rep 2	Call
1	CG7304	DRSC10804	1.26e6	1.41e6	1.29e6	1.36e6	inactive
2	CG18368	DRSC06731	1.64e6	1.64e6	1.38e6	1.41e6	inactive
3	CR30029 (pseudo)	DRSC06724	1.58e6	1.51e6	1.21e6	1.28e6	inactive
4	CG16815	DRSC02521	1.63e6	1.68e6	1.38e6	1.52e6	inactive
5	azot (ahuizotl)	DRSC06051	1.44e6	1.55e6	1.27e6	1.36e6	inactive
6	beag	DRSC15296	1.60e6	1.62e6	1.20e6	1.24e6	inactive
7	per (period)	DRSC18818	1.43e6	1.43e6	1.01e6	1.12e6	inactive
8	CG42570	DRSC09391	1.42e6	1.59e6	1.17e6	1.36e6	inactive
9	nonA-l (nonA-like)	DRSC17017	1.45e6	1.47e6	1.02e6	1.08e6	inactive
10	CG17562	DRSC15243	1.47e6	1.52e6	1.09e6	1.30e6	inactive
11	Achl (Achilles)	DRSC06665	1.54e6	1.61e6	1.15e6	1.30e6	inactive
12	spel1 (spellchecker1)	DRSC03617	1.80e6	1.94e6	1.29e6	1.39e6	inactive
13	CG16879 (retired record)	DRSC01918	1.54e6	1.40e6	1.09e6	1.11e6	inactive
14	CG3483	DRSC04371	1.43e6	1.53e6	1.13e6	1.24e6	inactive
15	CG5568	DRSC10518	1.40e6	1.44e6	1.07e6	1.13e6	inactive
16	htk (hat-trick)	DRSC20029	1.57e6	1.56e6	9.33e5	1.07e6	inactive
17	htk (hat-trick)	DRSC20031	1.61e6	1.71e6	1.05e6	1.25e6	inactive
18	CG17572	DRSC02629	1.48e6	1.64e6	1.33e6	2.94e5	inactive
19	Reck (Reversion-inducing-cysteine-rich protein with kazal motifs)	DRSC10504	1.64e6	1.68e6	1.21e6	1.29e6	inactive
20	Reck (Reversion-inducing-cysteine-rich protein with kazal motifs)	DRSC10505	1.40e6	1.56e6	1.31e6	1.50e6	inactive
21	CG3198	DRSC18292	1.46e6	1.46e6	9.48e5	1.10e6	inactive
22	zfh1 (Zn finger homeodomain 1)	DRSC14014	1.25e6	1.50e6	8.63e5	9.14e5	inactive
23	zfh1 (Zn finger homeodomain 1)	DRSC17098	4.05e5		5.97e5		inactive
24	CG9018	DRSC08618	1.29e6	1.30e6	1.03e6	1.18e6	inactive
25	pzg (putzig)	DRSC11848	1.28e6	1.35e6	1.43e6	1.48e6	inactive
26	CG30440	DRSC04775	1.53e6	1.69e6	9.58e5	1.14e6	inactive
27	CG30440	DRSC04845	1.61e6	1.65e6	1.37e6	1.40e6	inactive
28	CG30440	DRSC04855	1.57e6	1.72e6	1.33e6	1.35e6	inactive
29	CG44014	DRSC14995	1.49e6	1.52e6	1.08e6	1.15e6	inactive
30	CG5861	DRSC02907	1.51e6	1.80e6	1.33e6	1.47e6	inactive
31	Prosbeta1 (Proteasome beta1 subunit)	DRSC07159	8.88e5	9.74e5	5.62e5	6.25e5	active
32	CG3473	DRSC01915	1.66e6	1.68e6	1.34e6	1.53e6	inactive
33	fz2 (frizzled 2)	DRSC09595	1.49e6	1.57e6	1.17e6	1.25e6	inactive
34	fz2 (frizzled 2)	DRSC10087	1.45e6	1.53e6	1.05e6	1.19e6	inactive
35	fz2 (frizzled 2)	DRSC11349	1.55e6	1.64e6	1.29e6	1.39e6	inactive

Next part (5 carried over from the part before).
no.	target	DRSC id	Kc cell number, rep 1	Kc cell number, rep 2	S2R+ cell number, rep 1	S2R+ cell number, rep 2	Call
31	Prosbeta1 (Proteasome beta1 subunit)	DRSC07159	8.88e5	9.74e5	5.62e5	6.25e5	active
32	CG3473	DRSC01915	1.66e6	1.68e6	1.34e6	1.53e6	inactive
33	fz2 (frizzled 2)	DRSC09595	1.49e6	1.57e6	1.17e6	1.25e6	inactive
34	fz2 (frizzled 2)	DRSC10087	1.45e6	1.53e6	1.05e6	1.19e6	inactive
35	fz2 (frizzled 2)	DRSC11349	1.55e6	1.64e6	1.29e6	1.39e6	inactive
36	NSD (Nuclear receptor binding SET domain protein)	DRSC15691	1.50e6	1.50e6	1.05e6	1.08e6	inactive
37	CG13984	DRSC02316	1.67e6	1.46e6	1.14e6	1.34e6	inactive
38	CLIP-190 (Cytoplasmic linker protein 190)	DRSC03283	1.18e6	1.34e6	1.24e6	1.22e6	inactive
39	CG13850	DRSC14700	1.49e6	1.57e6	1.14e6	1.23e6	inactive
40	Dhc62B (Dynein heavy chain at 62B)	DRSC08655	1.38e6	1.19e6	1.12e6	1.28e6	inactive
41	CG5823	DRSC15881	1.51e6	1.58e6	1.14e6	1.22e6	inactive
42	CG13360	DRSC18536	6.34e5		9.14e5		inactive
43	IFT46 (Intraflagellar transport 46)	DRSC02462	1.62e6	1.61e6	1.24e6	2.95e5	inactive
44	Drak (Death-associated protein kinase related)	DRSC19778	1.41e6	1.32e6	9.92e5	1.07e6	inactive
45	Act57B (Actin 57B)	DRSC04042	1.13e6	1.25e6	9.47e5	1.03e6	inactive
46	CG33099	DRSC15774	1.38e6	1.51e6	1.08e6	1.20e6	inactive
47	RpL26 (Ribosomal protein L26)	DRSC10726	9.21e5	1.03e6	6.91e5	8.06e5	active
48	CG32669	DRSC18864	1.45e6	1.68e6	1.10e6	1.24e6	inactive
49	CG33143	DRSC04151	1.56e6	1.38e6	1.32e6	1.29e6	inactive
50	CG33143	DRSC04454	1.49e6	1.53e6	1.26e6	1.28e6	inactive
51	escl	DRSC02828	1.49e6	1.70e6	1.32e6	1.16e6	inactive
52	CG14204	DRSC19559	1.51e6	1.58e6	8.98e5	1.03e6	inactive
53	cindr (CIN85 and CD2AP related)	DRSC14126	5.56e5		9.09e5		inactive
54	cindr (CIN85 and CD2AP related)	DRSC14298	1.44e6	1.43e6	8.91e5	9.60e5	inactive
55	obst-B (obstructor-B)	DRSC01987	1.34e6	1.38e6	1.28e6	1.30e6	inactive
56	CG17036	DRSC02564	1.80e6	2.00e6	1.27e6	1.40e6	inactive
57	Osi23 (Osiris 23)	DRSC15074	1.67e6	1.65e6	1.06e6	1.19e6	inactive
58	Lk (Leucokinin)	DRSC10022	1.33e6	1.40e6	1.24e6	1.27e6	inactive
59	CG4382	DRSC02743	1.54e6	1.57e6	1.22e6	1.36e6	inactive
